Reference: publication PMC9299836 (eLife, 2022)
The source gives many values for each of these; only a part stands here.

The chains behind the UniProt entries cited, without tags or fusion partners. Residues count along the entry.
UniProt Q14BI2, 19-872 A548F: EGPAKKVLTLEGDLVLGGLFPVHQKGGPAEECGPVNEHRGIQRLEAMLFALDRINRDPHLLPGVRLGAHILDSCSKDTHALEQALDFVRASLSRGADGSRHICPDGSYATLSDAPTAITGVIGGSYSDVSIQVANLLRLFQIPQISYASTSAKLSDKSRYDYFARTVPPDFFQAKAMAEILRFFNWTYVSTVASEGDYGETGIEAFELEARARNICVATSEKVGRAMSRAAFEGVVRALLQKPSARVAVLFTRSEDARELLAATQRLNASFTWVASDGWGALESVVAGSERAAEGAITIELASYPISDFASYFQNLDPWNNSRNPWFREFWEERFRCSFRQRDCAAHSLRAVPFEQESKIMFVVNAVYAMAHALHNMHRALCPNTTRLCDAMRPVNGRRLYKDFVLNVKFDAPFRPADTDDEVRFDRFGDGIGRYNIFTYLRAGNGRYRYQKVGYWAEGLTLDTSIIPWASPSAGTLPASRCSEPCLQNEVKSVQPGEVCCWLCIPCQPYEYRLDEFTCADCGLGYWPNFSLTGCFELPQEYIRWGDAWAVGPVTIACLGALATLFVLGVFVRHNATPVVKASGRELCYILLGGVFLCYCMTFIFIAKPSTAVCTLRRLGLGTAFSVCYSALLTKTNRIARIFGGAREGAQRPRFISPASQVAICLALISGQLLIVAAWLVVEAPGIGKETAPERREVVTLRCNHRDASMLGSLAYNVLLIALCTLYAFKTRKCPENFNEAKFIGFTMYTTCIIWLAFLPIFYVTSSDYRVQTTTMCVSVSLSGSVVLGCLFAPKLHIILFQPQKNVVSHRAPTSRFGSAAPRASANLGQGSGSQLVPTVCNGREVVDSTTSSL

Target: mGluR2 (Mus musculus, UniProt Q14BI2, A548F)
Experiment: smFRET of azi-CRD: cross-correlation of donor and acceptor intensities (CRD dynamics) and HMM transition density plots;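 further: single detergent-solubilized receptors captured on antibody-coated flow cells via C-terminal FLAG-tag, imaged by smFRET, donor and acceptor intensity traces from three independent biological replicates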

Cross Correlation, Mean (15μM Glutamate + 5μM MNI-137, Time 2.4 s): -0.01317 | Cross Correlation, Mean (15μM Glutamate + 5μM MNI-137, Time 2.45 s): -0.00987 | Cross Correlation, Mean (15μM Glutamate + 5μM MNI-137, Time 2.5 s): -0.00544 | Cross Correlation, Mean (15μM Glutamate + 5μM MNI-137, Time 2.55 s): -0.00743 | Cross Correlation, Mean (15μM Glutamate + 5μM MNI-137, Time 2.6 s): -0.0157 | Cross Correlation, Mean (15μM Glutamate + 5μM MNI-137, Time 2.65 s): -0.00683 | Cross Correlation, Mean (15μM Glutamate + 5μM MNI-137, Time 2.7 s): -0.00769 | Cross Correlation, Mean (15μM Glutamate + 5μM MNI-137, Time 2.75 s): -0.00781 | Cross Correlation, Mean (15μM Glutamate + 5μM MNI-137, Time 2.8 s): -0.00893 | Cross Correlation, Mean (15μM Glutamate + 5μM MNI-137, Time 2.85 s): -0.00721 | Cross Correlation, Mean (15μM Glutamate + 5μM MNI-137, Time 2.9 s): -0.00734 | Cross Correlation, Mean (15μM Glutamate + 5μM MNI-137, Time 2.95 s): -0.00772 | Cross Correlation, Mean (1000μM Glutamate + 5μM MNI-137, Time 0 s): -0.4674 | Cross Correlation, Mean (1000μM Glutamate + 5μM MNI-137, Time 0.05 s): -0.3312 | Cross Correlation, Mean (1000μM Glutamate + 5μM MNI-137, Time 0.1 s): -0.2718 | Cross Correlation, Mean (1000μM Glutamate + 5μM MNI-137, Time 0.15 s): -0.2373 | Cross Correlation, Mean (1000μM Glutamate + 5μM MNI-137, Time 2 s): -0.02857 | Cross Correlation, Mean (1000μM Glutamate + 5μM MNI-137, Time 2.05 s): -0.02736 | Cross Correlation, Mean (1000μM Glutamate + 5μM MNI-137, Time 2.1 s): -0.02787 | Cross Correlation, Mean (1000μM Glutamate + 5μM MNI-137, Time 2.15 s): -0.02259 | Cross Correlation, Mean (1000μM Glutamate + 5μM MNI-137, Time 2.2 s): -0.01832 | Cross Correlation, Mean (1000μM Glutamate + 5μM MNI-137, Time 2.25 s): -0.01961 | Cross Correlation, Mean (1000μM Glutamate + 5μM MNI-137, Time 2.3 s): -0.02074 | Cross Correlation, Mean (1000μM Glutamate + 5μM MNI-137, Time 2.35 s): -0.0172 | Cross Correlation, Mean (1000μM Glutamate + 5μM MNI-137, Time 2.4 s): -0.0214 | Cross Correlation, Mean (1000μM Glutamate + 5μM MNI-137, Time 2.45 s): -0.01763 | Cross Correlation, Mean (1000μM Glutamate + 5μM MNI-137, Time 2.5 s): -0.0144 | Cross Correlation, Mean (1000μM Glutamate + 5μM MNI-137, Time 2.55 s): -0.01537 | Cross Correlation, Mean (1000μM Glutamate + 5μM MNI-137, Time 2.6 s): -0.01422 | Cross Correlation, Mean (1000μM Glutamate + 5μM MNI-137, Time 2.65 s): -0.01258 | Cross Correlation, Mean (1000μM Glutamate + 5μM MNI-137, Time 2.7 s): -0.0096 | Cross Correlation, Mean (1000μM Glutamate + 5μM MNI-137, Time 2.75 s): -0.00827 | Cross Correlation, Mean (1000μM Glutamate + 5μM MNI-137, Time 2.8 s): -0.00658 | Cross Correlation, Mean (1000μM Glutamate + 5μM MNI-137, Time 2.85 s): -0.00289 | Cross Correlation, Mean (1000μM Glutamate + 5μM MNI-137, Time 2.9 s): -0.00244 | Cross Correlation, Mean (1000μM Glutamate + 5μM MNI-137, Time 2.95 s): -0.0049 | Cross Correlation, Mean (Time 0 s, 1000μM Glutamate + 5μM MNI-137, N=3): -0.4674 | Cross Correlation, Mean (Time 0.05 s, 1000μM Glutamate + 5μM MNI-137, N=3): -0.3312 | Cross Correlation, Mean (Time 0.1 s, 1000μM Glutamate + 5μM MNI-137, N=3): -0.2718 | Cross Correlation, Mean (Time 0.15 s, 1000μM Glutamate + 5μM MNI-137, N=3): -0.2373 | Cross Correlation, Mean (Time 0.2 s, 1000μM Glutamate + 5μM MNI-137, N=3): -0.2112 | Cross Correlation, Mean (Time 0.25 s, 1000μM Glutamate + 5μM MNI-137, N=3): -0.1919 | Cross Correlation, Mean (Time 0.3 s, 1000μM Glutamate + 5μM MNI-137, N=3): -0.1758 | Cross Correlation, Mean (Time 0.35 s, 1000μM Glutamate + 5μM MNI-137, N=3): -0.1629 | Cross Correlation, Mean (Time 0.4 s, 1000μM Glutamate + 5μM MNI-137, N=3): -0.1514 | Cross Correlation, Mean (Time 0.45 s, 1000μM Glutamate + 5μM MNI-137, N=3): -0.1426 | Cross Correlation, Mean (Time 0.5 s, 1000μM Glutamate + 5μM MNI-137, N=3): -0.1307 | Cross Correlation, Mean (Time 0.55 s, 1000μM Glutamate + 5μM MNI-137, N=3): -0.1241 | Cross Correlation, Mean (Time 0.6 s, 1000μM Glutamate + 5μM MNI-137, N=3): -0.1177 | Cross Correlation, Mean (Time 0.65 s, 1000μM Glutamate + 5μM MNI-137, N=3): -0.1093 | Cross Correlation, Mean (Time 0.7 s, 1000μM Glutamate + 5μM MNI-137, N=3): -0.1013 | Cross Correlation, Mean (Time 0.75 s, 1000μM Glutamate + 5μM MNI-137, N=3): -0.09952 | Cross Correlation, Mean (Time 0.8 s, 1000μM Glutamate + 5μM MNI-137, N=3): -0.09295 | Cross Correlation, Mean (Time 0.85 s, 1000μM Glutamate + 5μM MNI-137, N=3): -0.08726 | Cross Correlation, Mean (Time 0.9 s, 1000μM Glutamate + 5μM MNI-137, N=3): -0.08538 | Cross Correlation, Mean (Time 0.95 s, 1000μM Glutamate + 5μM MNI-137, N=3): -0.07938 | Cross Correlation, Mean (Time 1 s, 1000μM Glutamate + 5μM MNI-137, N=3): -0.07503 | Cross Correlation, Mean (Time 1.05 s, 1000μM Glutamate + 5μM MNI-137, N=3): -0.07213 | Cross Correlation, Mean (Time 1.1 s, 1000μM Glutamate + 5μM MNI-137, N=3): -0.06374 | Cross Correlation, Mean (Time 1.15 s, 1000μM Glutamate + 5μM MNI-137, N=3): -0.06369 | Cross Correlation, Mean (Time 1.2 s, 1000μM Glutamate + 5μM MNI-137, N=3): -0.0627 | Cross Correlation, Mean (Time 1.3 s, 1000μM Glutamate + 5μM MNI-137, N=3): -0.05443 | Cross Correlation, Mean (Time 1.35 s, 1000μM Glutamate + 5μM MNI-137, N=3): -0.05075 | Cross Correlation, Mean (Time 1.4 s, 1000μM Glutamate + 5μM MNI-137, N=3): -0.05008 | Cross Correlation, Mean (Time 1.45 s, 1000μM Glutamate + 5μM MNI-137, N=3): -0.0474 | Cross Correlation, Mean (Time 1.5 s, 1000μM Glutamate + 5μM MNI-137, N=3): -0.04472 | Cross Correlation, Mean (Time 1.55 s, 1000μM Glutamate + 5μM MNI-137, N=3): -0.04463 | Cross Correlation, Mean (Time 1.65 s, 1000μM Glutamate + 5μM MNI-137, N=3): -0.03966 | Cross Correlation, Mean (Time 1.7 s, 1000μM Glutamate + 5μM MNI-137, N=3): -0.03894 | Cross Correlation, Mean (Time 1.75 s, 1000μM Glutamate + 5μM MNI-137, N=3): -0.03942 | Cross Correlation, Mean (Time 1.8 s, 1000μM Glutamate + 5μM MNI-137, N=3): -0.03907 | Cross Correlation, Mean (Time 1.9 s, 1000μM Glutamate + 5μM MNI-137, N=3): -0.0321 | Cross Correlation, Mean (Time 1.95 s, 1000μM Glutamate + 5μM MNI-137, N=3): -0.034 | Cross Correlation, Mean (Time 2 s, 1000μM Glutamate + 5μM MNI-137, N=3): -0.02857 | Cross Correlation, Mean (Time 2.05 s, 1000μM Glutamate + 5μM MNI-137, N=3): -0.02736 | Cross Correlation, Mean (Time 2.1 s, 1000μM Glutamate + 5μM MNI-137, N=3): -0.02787 | Cross Correlation, Mean (Time 2.15 s, 1000μM Glutamate + 5μM MNI-137, N=3): -0.02259 | Cross Correlation, Mean (Time 2.2 s, 1000μM Glutamate + 5μM MNI-137, N=3): -0.01832 | Cross Correlation, Mean (Time 2.25 s, 1000μM Glutamate + 5μM MNI-137, N=3): -0.01961 | Cross Correlation, Mean (Time 2.3 s, 1000μM Glutamate + 5μM MNI-137, N=3): -0.02074 | Cross Correlation, Mean (Time 2.35 s, 1000μM Glutamate + 5μM MNI-137, N=3): -0.0172 | Cross Correlation, Mean (Time 2.4 s, 1000μM Glutamate + 5μM MNI-137, N=3): -0.0214 | Cross Correlation, Mean (Time 2.45 s, 1000μM Glutamate + 5μM MNI-137, N=3): -0.01763 | Cross Correlation, Mean (Time 2.5 s, 1000μM Glutamate + 5μM MNI-137, N=3): -0.0144 | Cross Correlation, Mean (Time 2.55 s, 1000μM Glutamate + 5μM MNI-137, N=3): -0.01537 | Cross Correlation, Mean (Time 2.6 s, 1000μM Glutamate + 5μM MNI-137, N=3): -0.01422 | Cross Correlation, Mean (Time 2.65 s, 1000μM Glutamate + 5μM MNI-137, N=3): -0.01258 | Cross Correlation, Mean (Time 2.7 s, 1000μM Glutamate + 5μM MNI-137, N=3): -0.0096 | Cross Correlation, Mean (Time 2.75 s, 1000μM Glutamate + 5μM MNI-137, N=3): -0.00827 | Cross Correlation, Mean (Time 2.8 s, 1000μM Glutamate + 5μM MNI-137, N=3): -0.00658 | Cross Correlation, Mean (Time 2.85 s, 1000μM Glutamate + 5μM MNI-137, N=3): -0.00289 | Cross Correlation, Mean (Time 2.9 s, 1000μM Glutamate + 5μM MNI-137, N=3): -0.00244 | Cross Correlation, Mean (Time 2.95 s, 1000μM Glutamate + 5μM MNI-137, N=3): -0.0049
Substance: MNI-137
